These are yes or no findings as the source states them, for the method shown. Binding seen in cells or lysates may run through a third protein. A yes stands for co-enrichment or nearness to the bait. Other partners may have been found.
Biological target: BCOR (endogenous wild type, K562) (human (endogenous in K562)) (UniProt Q6W2J9)
Test: affinity purification with mass spectrometry

Sequences of proteins named here, by UniProt entry; tags and fusion partners are left off.
UniProt Q6W2J9: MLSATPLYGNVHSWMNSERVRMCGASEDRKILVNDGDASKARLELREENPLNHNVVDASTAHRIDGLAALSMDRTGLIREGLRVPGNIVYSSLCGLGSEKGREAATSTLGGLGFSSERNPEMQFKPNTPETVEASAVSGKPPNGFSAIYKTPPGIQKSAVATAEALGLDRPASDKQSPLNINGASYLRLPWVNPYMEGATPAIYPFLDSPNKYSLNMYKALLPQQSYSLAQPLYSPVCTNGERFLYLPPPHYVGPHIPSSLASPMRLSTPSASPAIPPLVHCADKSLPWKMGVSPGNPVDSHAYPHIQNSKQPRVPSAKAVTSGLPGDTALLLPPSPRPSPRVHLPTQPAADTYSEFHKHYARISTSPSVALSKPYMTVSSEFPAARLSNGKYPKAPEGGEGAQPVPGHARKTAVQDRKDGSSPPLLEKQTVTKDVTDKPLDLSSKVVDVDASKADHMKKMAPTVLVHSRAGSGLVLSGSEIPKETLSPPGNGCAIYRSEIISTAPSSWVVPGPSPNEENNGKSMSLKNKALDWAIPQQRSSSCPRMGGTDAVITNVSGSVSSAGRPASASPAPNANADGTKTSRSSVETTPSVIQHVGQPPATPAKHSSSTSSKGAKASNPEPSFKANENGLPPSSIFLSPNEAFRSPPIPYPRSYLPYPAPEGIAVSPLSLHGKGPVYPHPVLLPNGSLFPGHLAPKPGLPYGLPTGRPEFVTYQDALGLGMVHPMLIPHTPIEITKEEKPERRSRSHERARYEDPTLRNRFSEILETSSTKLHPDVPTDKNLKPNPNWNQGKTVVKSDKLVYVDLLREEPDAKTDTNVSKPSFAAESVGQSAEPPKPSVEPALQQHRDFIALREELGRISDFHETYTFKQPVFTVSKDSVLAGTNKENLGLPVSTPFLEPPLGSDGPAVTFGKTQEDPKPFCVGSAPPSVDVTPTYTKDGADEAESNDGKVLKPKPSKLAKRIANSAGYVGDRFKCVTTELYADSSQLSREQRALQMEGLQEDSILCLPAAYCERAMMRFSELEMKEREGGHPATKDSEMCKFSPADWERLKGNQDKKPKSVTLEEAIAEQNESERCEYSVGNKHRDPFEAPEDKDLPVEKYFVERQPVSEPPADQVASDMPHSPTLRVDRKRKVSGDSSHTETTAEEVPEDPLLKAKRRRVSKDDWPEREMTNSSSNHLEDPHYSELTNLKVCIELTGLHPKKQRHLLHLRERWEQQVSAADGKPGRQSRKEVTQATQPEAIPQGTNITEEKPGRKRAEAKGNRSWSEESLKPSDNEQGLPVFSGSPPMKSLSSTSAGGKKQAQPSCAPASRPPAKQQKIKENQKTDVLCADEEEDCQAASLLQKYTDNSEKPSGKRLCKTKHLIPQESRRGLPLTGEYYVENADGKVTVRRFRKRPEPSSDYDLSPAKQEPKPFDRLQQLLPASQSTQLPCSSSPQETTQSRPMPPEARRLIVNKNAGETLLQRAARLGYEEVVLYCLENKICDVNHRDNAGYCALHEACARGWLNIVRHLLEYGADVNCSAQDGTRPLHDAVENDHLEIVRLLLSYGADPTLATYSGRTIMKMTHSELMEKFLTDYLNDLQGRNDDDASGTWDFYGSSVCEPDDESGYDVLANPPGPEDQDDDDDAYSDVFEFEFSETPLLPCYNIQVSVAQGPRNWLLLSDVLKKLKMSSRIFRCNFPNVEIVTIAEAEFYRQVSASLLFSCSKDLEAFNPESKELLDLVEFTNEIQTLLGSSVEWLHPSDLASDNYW
UniProt Q9BSM1: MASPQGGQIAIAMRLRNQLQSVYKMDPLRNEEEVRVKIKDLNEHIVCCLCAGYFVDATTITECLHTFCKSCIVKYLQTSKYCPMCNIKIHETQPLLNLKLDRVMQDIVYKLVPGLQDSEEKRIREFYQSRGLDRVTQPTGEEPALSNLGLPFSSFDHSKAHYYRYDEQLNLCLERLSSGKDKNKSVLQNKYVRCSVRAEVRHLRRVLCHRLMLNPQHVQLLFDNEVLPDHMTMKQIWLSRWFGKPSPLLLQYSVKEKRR
UniProt Q93009: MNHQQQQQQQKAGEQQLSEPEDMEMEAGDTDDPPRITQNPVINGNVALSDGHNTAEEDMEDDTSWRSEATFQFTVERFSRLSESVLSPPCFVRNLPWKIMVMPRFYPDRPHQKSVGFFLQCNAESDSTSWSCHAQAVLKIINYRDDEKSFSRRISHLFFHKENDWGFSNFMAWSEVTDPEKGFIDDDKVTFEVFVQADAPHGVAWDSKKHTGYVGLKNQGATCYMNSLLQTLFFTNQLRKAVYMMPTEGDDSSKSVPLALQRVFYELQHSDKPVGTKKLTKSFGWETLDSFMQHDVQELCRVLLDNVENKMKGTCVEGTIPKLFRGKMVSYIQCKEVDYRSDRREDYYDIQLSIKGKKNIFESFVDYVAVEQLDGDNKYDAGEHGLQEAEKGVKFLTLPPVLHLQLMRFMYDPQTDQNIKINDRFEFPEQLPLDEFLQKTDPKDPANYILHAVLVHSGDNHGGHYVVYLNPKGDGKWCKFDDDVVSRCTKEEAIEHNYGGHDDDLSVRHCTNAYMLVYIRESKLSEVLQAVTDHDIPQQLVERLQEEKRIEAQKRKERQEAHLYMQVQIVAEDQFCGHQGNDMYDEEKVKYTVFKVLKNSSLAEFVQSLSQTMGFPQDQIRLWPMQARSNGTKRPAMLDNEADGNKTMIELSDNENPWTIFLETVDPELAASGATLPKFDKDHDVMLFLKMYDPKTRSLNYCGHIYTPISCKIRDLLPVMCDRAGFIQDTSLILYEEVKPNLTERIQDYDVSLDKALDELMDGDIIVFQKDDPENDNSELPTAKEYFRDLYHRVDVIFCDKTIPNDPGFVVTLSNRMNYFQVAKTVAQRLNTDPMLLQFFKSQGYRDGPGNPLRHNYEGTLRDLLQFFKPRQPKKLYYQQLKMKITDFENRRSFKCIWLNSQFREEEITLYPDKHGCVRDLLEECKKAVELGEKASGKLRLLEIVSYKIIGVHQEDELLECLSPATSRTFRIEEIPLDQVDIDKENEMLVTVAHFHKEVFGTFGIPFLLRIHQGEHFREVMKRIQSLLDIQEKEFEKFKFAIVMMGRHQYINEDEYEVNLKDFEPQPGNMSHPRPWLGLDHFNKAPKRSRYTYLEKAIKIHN

| binding | Molecule |
| --- | --- |
| binds | PCGF1 (endogenous) (from UniProt Q9BSM1 1-259) |
| binds | USP7 (endogenous) (from UniProt Q93009 1-1102) |
| binds | KDM2B (endogenous) (protein, UniProt Q8NHM5 1-1336) MAGPQMGGSAEDHPPRKRHAAEKQKKKTVIYTKCFEFESATQRPIDRQRYDENEDLSDVEEIVSVRGFSLEEKLRSQLYQGDFVHAMEGKDFNYEYVQREALRVPLIFREKDGLGIKMPDPDFTVRDVKLLVGSRRLVDVMDVNTQKGTEMSMSQFVRYYETPEAQRDKLYNVISLEFSHTKLEHLVKRPTVVDLVDWVDNMWPQHLKEKQTEATNAIAEMKYPKVKKYCLMSVKGCFTDFHIDFGGTSVWYHVFRGGKIFWLIPPTLHNLALYEEWVLSGKQSDIFLGDRVERCQRIELKQGYTFFIPSGWIHAVYTPVDSLVFGGNILHSFNVPMQLRIYEIEDRTRVQPKFRYPFYYEMCWYVLERYVYCVTQRSHLTQEYQRESMLIDAPRKPSIDGFSSDSWLEMEEEACDQQPQEEEEKDEEGEGRDRAPKPPTDGSTSPTSTPSEDQEALGKKPKAPALRFLKRTLSNESEESVKSTTLAVDYPKTPTGSPATEVSAKWTHLTEFELKGLKALVEKLESLPENKKCVPEGIEDPQALLEGVKNVLKEHADDDPSLAITGVPVVTWPKKTPKNRAVGRPKGKLGPASAVKLAANRTTAGARRRRTRCRKCEACLRTECGECHFCKDMKKFGGPGRMKQSCIMRQCIAPVLPHTAVCLVCGEAGKEDTVEEEEGKFNLMLMECSICNEIIHPGCLKIKESEGVVNDELPNCWECPKCNHAGKTGKQKRGPGFKYASNLPGSLLKEQKMNRDNKEGQEPAKRRSECEEAPRRRSDEHSKKVPPDGLLRRKSDDVHLRKKRKYEKPQELSGRKRASSLQTSPGSSSHLSPRPPLGSSLSPWWRSSLTYFQQQLKPGKEDKLFRKKRRSWKNAEDRMALANKPLRRFKQEPEDELPEAPPKTRESDHSRSSSPTAGPSTEGAEGPEEKKKVKMRRKRRLPNKELSRELSKELNHEIQRTENSLANENQQPIKSEPESEGEEPKRPPGICERPHRFSKGLNGTPRELRHQLGPSLRSPPRVISRPPPSVSPPKCIQMERHVIRPPPISPPPDSLPLDDGAAHVMHREVWMAVFSYLSHQDLCVCMRVCRTWNRWCCDKRLWTRIDLNHCKSITPLMLSGIIRRQPVSLDLSWTNISKKQLSWLINRLPGLRDLVLSGCSWIAVSALCSSSCPLLRTLDVQWVEGLKDAQMRDLLSPPTDNRPGQMDNRSKLRNIVELRLAGLDITDASLRLIIRHMPLLSKLHLSYCNHVTDQSINLLTAVGTTTRDSLTEINLSDCNKVTDQCLSFFKRCGNICHIDLRYCKQVTKEGCEQFIAEMSVSVQFGQVEEKLLQKLS |

— publication doi:10.1101/2021.03.08.433705
